Results are given in words; binding and its absence hold for the method and conditions named. Binding seen in cells or lysates may run through a third protein. For some assays here: Binding can be weak; no strength is given. Tags and fused reporters may be left off the sequences shown.

The target of test [1] is T1, GST–STBD1 NDel mutant (human (cDNA from HepG2 cells)) (UniProt O95210).
T1 sequence: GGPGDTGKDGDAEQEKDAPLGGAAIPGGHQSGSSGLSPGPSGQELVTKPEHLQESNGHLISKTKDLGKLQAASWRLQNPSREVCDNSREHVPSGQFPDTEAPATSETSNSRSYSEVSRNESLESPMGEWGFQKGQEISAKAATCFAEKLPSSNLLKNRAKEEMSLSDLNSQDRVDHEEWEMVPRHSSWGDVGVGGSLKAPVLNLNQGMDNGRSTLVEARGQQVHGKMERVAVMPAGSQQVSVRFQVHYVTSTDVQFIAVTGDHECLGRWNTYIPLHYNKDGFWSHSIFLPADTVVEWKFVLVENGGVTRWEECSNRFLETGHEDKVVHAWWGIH
As to the kind of experiment: pull-down; GST–STBD1 proteins (or GST alone) immobilised on glutathione–sepharose beads, incubated with mouse liver lysate for 90 min at 4°C; washed three times with lysis buffer; Western blot; only the target purified. (In general: In western blotting, separated proteins are transferred to a membrane and probed.)

The target in test [2] is FLAG-tagged CAP (catabolite gene activator protein). Briefly: co-IP; COS cells co-transfected with HA-STBD1 and FLAG-tagged constructs; anti-FLAG immunoprecipitates blotted; lysis buffer 25 mM Tris pH 7.5, 150 mM NaCl, 1% Triton X-100; 2 h at 4°C.

Take “endogenous GS (glycogen synthase) of mouse liver (enzyme)”: the binding result in test [1] is “binds”.

B1: HA-tagged STBD1 (starch-binding domain-containing protein 1), wild type (protein, UniProt O95210 1-358)
chain: MGAVWSALLVGGGLAGALFVWLLRGGPGDTGKDGDAEQEKDAPLGGAAIPGGHQSGSSGLSPGPSGQELVTKPEHLQESNGHLISKTKDLGKLQAASWRLQNPSREVCDNSREHVPSGQFPDTEAPATSETSNSRSYSEVSRNESLESPMGEWGFQKGQEISAKAATCFAEKLPSSNLLKNRAKEEMSLSDLNSQDRVDHEEWEMVPRHSSWGDVGVGGSLKAPVLNLNQGMDNGRSTLVEARGQQVHGKMERVAVMPAGSQQVSVRFQVHYVTSTDVQFIAVTGDHECLGRWNTYIPLHYNKDGFWSHSIFLPADTVVEWKFVLVENGGVTRWEECSNRFLETGHEDKVVHAWWGIH
For the molecule B1, the binding result in test [2] was “no binding”.

The values above are taken from PMC4076837.
